The nature of data set [1]: general procedure: Fmoc solid-phase peptide synthesis; Rink Amide MBHA; HBTU/DIEA (PyAOP/DIEA for some couplings); Oxyma/DIC. The settings on record: whole synthesis, scale 6.66 mmol, acetate salt.
Data set [2] in a line: general procedure: Fmoc solid-phase peptide synthesis; Rink Amide MBHA resin (0.57 or 0.66 mmol/g) for C-terminal amides; pre-loaded Wang resin for C-terminal acids; HBTU/DIEA (PyAOP/DIEA for some couplings); Oxyma/DIC. To be noted: whole synthesis, scale 6.66 mmol.

In the case of “Ac-[Pen]-NT-[W(7-Me)]-[Lys(Ac)]-[Pen]-Phe[4-(2-aminoethoxy)]-[2-Nal]-[α-MeLys]-[Lys(Ac)]-N-[(D)Lys]-NH2”, the results for the isolated mass in data set [1] and in data set [2] (TFA salt) were 3.24 g and 3.83 g, respectively. Besides, the “final HPLC purity” value in data set [2] (analytical RP-HPLC, acetate salt) was found to be 97%. Further, in data set [2] (overall, acetate salt), the isolated yield result is listed as “˜25%”.

The values are drawn from US20260116921A1 (priority 2018, published 2026).
